Measurements reported in PubChem BioAssay AID1259308 (NCATS, 2017).

Assay: 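Genes whose loss raises luciferase production in HEK293 cells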 (primary screen)
System: human HEK293 embryonic kidney cells stably expressing firefly luciferase (HEK-CMV-Luc2-Hygro)
Reagent: single siRNA against human genes, 0.8 pmol siRNA per well
Time to read-out: 72 h
Detection: 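Reporter luminescence and viable-cell signal on separate replicate plates, given as percent of non-targeting control and median/MAD z-scores, plus per-cell luciferase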
Scale: total luciferase, z-score and total luciferase, % of control: higher = more reporter protein produced
Rule for the call: 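Active when the median/MAD z-score for overall luciferase is greater than 3; a gene was taken forward for validation with new siRNAs if at least two of its three siRNAs passed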
Meaning of the calls: active = raised luciferase; inactive = no rise
Here is one part, drawn at random, of about 59,000 reagents. Of all reagents, about 1,510 (2.6%) were called active. 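Calls use total luciferase alone and ignore viability, so some active siRNAs may act by altering cell number.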 Not all columns of the deposit are shown. No sequences are given here.

ZNF684 [SID160756621] | total luciferase, z-score = -0.0651; total luciferase, % of control = 80.6; activity call = inactive
ZNF684 [SID160756622] | total luciferase, z-score = -0.256; total luciferase, % of control = 76.8; activity call = inactive
ZNF684 [SID160756623] | total luciferase, z-score = -0.216; total luciferase, % of control = 77.6; activity call = inactive
TGFB3 [SID160717992] | total luciferase, z-score = -0.369; total luciferase, % of control = 74.5; activity call = inactive
TGFB3 [SID160717993] | total luciferase, z-score = 2.52; total luciferase, % of control = 132; activity call = inactive
TGFB3 [SID160731830] | total luciferase, z-score = -0.377; total luciferase, % of control = 74.4; activity call = inactive
CDK3 [SID160740861] | total luciferase, z-score = 0.506; total luciferase, % of control = 91.9; activity call = inactive
CDK3 [SID160740871] | total luciferase, z-score = -0.281; total luciferase, % of control = 76.3; activity call = inactive
CDK3 [SID160740881] | total luciferase, z-score = 1.57; total luciferase, % of control = 113; activity call = inactive
POC5 [SID160757331] | total luciferase, z-score = 1.96; total luciferase, % of control = 121; activity call = inactive
POC5 [SID160757332] | total luciferase, z-score = -1.21; total luciferase, % of control = 57.9; activity call = inactive
POC5 [SID160757333] | total luciferase, z-score = 0.29; total luciferase, % of control = 87.6; activity call = inactive

Entries above whose target name begins with P or p (3):
POC5 [SID160757331] | total luciferase, z-score = 1.96; total luciferase, % of control = 121; activity call = inactive
POC5 [SID160757332] | total luciferase, z-score = -1.21; total luciferase, % of control = 57.9; activity call = inactive
POC5 [SID160757333] | total luciferase, z-score = 0.29; total luciferase, % of control = 87.6; activity call = inactive

More entries:
ZBTB17 [SID160719201] | total luciferase, z-score = -0.452; total luciferase, % of control = 72.9; activity call = inactive
ZBTB17 [SID160719202] | total luciferase, z-score = -1.12; total luciferase, % of control = 59.6; activity call = inactive
ZBTB17 [SID160719203] | total luciferase, z-score = 0.281; total luciferase, % of control = 87.5; activity call = inactive
TAF12 [SID160717678] | total luciferase, z-score = 1.11; total luciferase, % of control = 104; activity call = inactive
TAF12 [SID160717679] | total luciferase, z-score = 1.2; total luciferase, % of control = 106; activity call = inactive
TAF12 [SID160717680] | total luciferase, z-score = 0.79; total luciferase, % of control = 97.6; activity call = inactive
ZBBX [SID160749330] | total luciferase, z-score = -1.52; total luciferase, % of control = 51.8; activity call = inactive
ZBBX [SID160749331] | total luciferase, z-score = -0.193; total luciferase, % of control = 78.1; activity call = inactive
ZBBX [SID160749333] | total luciferase, z-score = 0.0818; total luciferase, % of control = 83.5; activity call = inactive
